# PubChem BioAssay AID493130 (Broad Institute, 2011)
# Inconclusive means that the source gave no clear call. Such entries were picked first, then a sample of the others. Activity calls are given as the source filed them.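 Rule for the calls: active = signal-lowering compounds whose fitted half-maximal concentration is at most ten times their highest tested dose; inconclusive = flat fit between -30 and -70%, or poor fit; inactive = flat within 30%, signal rising, or potency beyond limit.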
# Test system: POS-1 (Caenorhabditis elegans) binding to mex-3 RNA
# Experiment: C. elegans POS-1 RNA interaction disruptors – biochemical, fluorescence polarization, cherry-picked samples, set 2, counter-screen for MEX-5 RNA-binding inhibitor project, dose response (AID 493130);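 note: POS-1 as maltose binding protein fusion made in E. coli with FITC RNA; 0% = DMSO neutral wells and -100% = excess unlabeled mex3 competitor RNA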
# Settings: POS-1/mex-3 RNA fluorescence polarization, 1 h; at 10 µM (top of the series)
row,SMILES,"activity change, negative = inhibition"
1,CNC(=O)c1sc(N2N=C3/C(=C/c4ccccc4)CCCC3C2c2ccccc2)nc1C (configuration not stated),inconclusive: -39.5%
2,Cc1ccc(S(=O)(=O)c2cc3c(=O)n4ccccc4nc3n(C3CCCCC3)c2=N)cc1,inactive: -6.81%
3,O=C1C(Br)=Cc2cccc3cccc1c23,inconclusive: -26%
4,O=c1cc2c(=O)oc3cc(O)c(O)oc3c2c(O)c1O,inconclusive: -33.4%
5,COc1ccc(NS(=O)(=O)c2ccc(C)c(C(=O)NNC(=O)c3ccccc3O)c2)cc1,inconclusive: -81.2%
6,COc1ccc(OC)c(NC(=O)c2sc3nc(Cc4ccccc4)cc(C(F)(F)F)c3c2N)c1,inconclusive: -24.8%
7,O=C(O)c1cc(O)c2c(c1)[C@@H]([C@H]1c3cc(C(=O)O)cc(O)c3C(=O)c3c(O[C@@H]4O[C@H](CO)[C@@H](O)[C@H](O)[C@H]4O)cccc31)c1cccc(OC3O[C@H](CO)[C@@H](O)[C@H](O)[C@H]3O)c1C2=O (some centres not stated),inconclusive: -28.9%
8,Brc1ccc(-c2cn3nc4c(nc3n2)CCCC4)cc1,inactive: -1.58%
9,COc1ccc(CC(=O)NNC(=O)c2cnccn2)cc1,inactive: -14.1%
10,Cc1cccc(-n2c(O)c(C=Nc3ccc4c(c3)OCO4)c3ccccc3c2=O)n1,inconclusive: -32.3%
11,CCOCCCn1c(=N)c(S(=O)(=O)c2ccccc2)cc2c(=O)n3cc(C)ccc3nc21,inconclusive: 40.7%
12,O=C1N=c2ccccc2=C1c1sc(=S)n(NC(=O)c2cccc(O)c2)c1O,inconclusive: -52.6%

# Numbers 1–2, reprinted for reference:
row,SMILES,"activity change, negative = inhibition"
1,CNC(=O)c1sc(N2N=C3/C(=C/c4ccccc4)CCCC3C2c2ccccc2)nc1C (configuration not stated),inconclusive: -39.5%
2,Cc1ccc(S(=O)(=O)c2cc3c(=O)n4ccccc4nc3n(C3CCCCC3)c2=N)cc1,inactive: -6.81%
